Results are given in words; binding and its absence hold for the method and conditions named. For some of these results: Binding calls can cover weak binding; strength is not graded here. For some of these results: Sequences can lack the tags named with a protein. For some of these results: Binding seen in cells or lysates may run through a third protein.
T1: AtMKIP1-YFP (yeast, without cTP) (Arabidopsis thaliana) (UniProt D2WL32)
T1 sequence: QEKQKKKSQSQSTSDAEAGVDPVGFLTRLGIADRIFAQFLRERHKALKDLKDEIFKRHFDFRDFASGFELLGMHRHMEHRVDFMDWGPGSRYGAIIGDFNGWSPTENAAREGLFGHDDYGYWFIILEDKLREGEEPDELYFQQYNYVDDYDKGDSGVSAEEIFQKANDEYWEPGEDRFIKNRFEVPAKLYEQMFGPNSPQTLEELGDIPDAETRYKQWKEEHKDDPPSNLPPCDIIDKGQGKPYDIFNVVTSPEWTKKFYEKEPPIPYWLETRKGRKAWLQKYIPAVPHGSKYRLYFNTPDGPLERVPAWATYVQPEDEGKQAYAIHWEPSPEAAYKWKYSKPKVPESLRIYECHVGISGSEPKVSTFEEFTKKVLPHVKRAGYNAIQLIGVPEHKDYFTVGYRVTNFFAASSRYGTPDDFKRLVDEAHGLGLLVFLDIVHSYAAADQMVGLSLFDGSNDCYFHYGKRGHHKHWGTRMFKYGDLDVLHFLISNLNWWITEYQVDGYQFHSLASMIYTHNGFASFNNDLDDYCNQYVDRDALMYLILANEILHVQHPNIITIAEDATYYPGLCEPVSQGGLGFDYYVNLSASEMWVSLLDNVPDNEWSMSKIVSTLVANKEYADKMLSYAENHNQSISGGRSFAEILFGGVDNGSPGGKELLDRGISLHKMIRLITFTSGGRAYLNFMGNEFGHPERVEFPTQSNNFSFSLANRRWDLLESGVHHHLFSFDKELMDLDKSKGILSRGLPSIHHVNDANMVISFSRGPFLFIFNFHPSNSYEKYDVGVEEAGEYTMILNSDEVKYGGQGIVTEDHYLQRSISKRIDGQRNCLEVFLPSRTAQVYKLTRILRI

T2: NtMatK-HA (Nicotiana tabacum) (UniProt P12176)
T2 sequence: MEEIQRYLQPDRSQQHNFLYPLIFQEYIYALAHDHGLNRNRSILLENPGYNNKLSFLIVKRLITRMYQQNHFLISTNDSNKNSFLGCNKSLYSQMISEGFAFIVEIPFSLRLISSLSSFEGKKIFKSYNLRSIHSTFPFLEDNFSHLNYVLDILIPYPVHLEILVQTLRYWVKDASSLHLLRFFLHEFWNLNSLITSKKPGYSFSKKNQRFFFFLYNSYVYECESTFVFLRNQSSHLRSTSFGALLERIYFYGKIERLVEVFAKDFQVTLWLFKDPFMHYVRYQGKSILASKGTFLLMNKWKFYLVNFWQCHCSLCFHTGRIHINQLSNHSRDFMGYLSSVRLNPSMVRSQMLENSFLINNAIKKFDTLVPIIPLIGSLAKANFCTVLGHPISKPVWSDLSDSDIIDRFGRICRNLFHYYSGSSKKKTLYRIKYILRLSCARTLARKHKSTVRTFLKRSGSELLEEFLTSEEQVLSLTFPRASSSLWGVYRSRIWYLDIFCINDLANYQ

B1: AtMKIP1-YFP (yeast, without cTP) (protein, UniProt D2WL32 50-899)
chain: QEKQKKKSQSQSTSDAEAGVDPVGFLTRLGIADRIFAQFLRERHKALKDLKDEIFKRHFDFRDFASGFELLGMHRHMEHRVDFMDWGPGSRYGAIIGDFNGWSPTENAAREGLFGHDDYGYWFIILEDKLREGEEPDELYFQQYNYVDDYDKGDSGVSAEEIFQKANDEYWEPGEDRFIKNRFEVPAKLYEQMFGPNSPQTLEELGDIPDAETRYKQWKEEHKDDPPSNLPPCDIIDKGQGKPYDIFNVVTSPEWTKKFYEKEPPIPYWLETRKGRKAWLQKYIPAVPHGSKYRLYFNTPDGPLERVPAWATYVQPEDEGKQAYAIHWEPSPEAAYKWKYSKPKVPESLRIYECHVGISGSEPKVSTFEEFTKKVLPHVKRAGYNAIQLIGVPEHKDYFTVGYRVTNFFAASSRYGTPDDFKRLVDEAHGLGLLVFLDIVHSYAAADQMVGLSLFDGSNDCYFHYGKRGHHKHWGTRMFKYGDLDVLHFLISNLNWWITEYQVDGYQFHSLASMIYTHNGFASFNNDLDDYCNQYVDRDALMYLILANEILHVQHPNIITIAEDATYYPGLCEPVSQGGLGFDYYVNLSASEMWVSLLDNVPDNEWSMSKIVSTLVANKEYADKMLSYAENHNQSISGGRSFAEILFGGVDNGSPGGKELLDRGISLHKMIRLITFTSGGRAYLNFMGNEFGHPERVEFPTQSNNFSFSLANRRWDLLESGVHHHLFSFDKELMDLDKSKGILSRGLPSIHHVNDANMVISFSRGPFLFIFNFHPSNSYEKYDVGVEEAGEYTMILNSDEVKYGGQGIVTEDHYLQRSISKRIDGQRNCLEVFLPSRTAQVYKLTRILRI
B2: AtMKIP1 (endogenous) (protein, UniProt D2WL32 50-899)
chain: QEKQKKKSQSQSTSDAEAGVDPVGFLTRLGIADRIFAQFLRERHKALKDLKDEIFKRHFDFRDFASGFELLGMHRHMEHRVDFMDWGPGSRYGAIIGDFNGWSPTENAAREGLFGHDDYGYWFIILEDKLREGEEPDELYFQQYNYVDDYDKGDSGVSAEEIFQKANDEYWEPGEDRFIKNRFEVPAKLYEQMFGPNSPQTLEELGDIPDAETRYKQWKEEHKDDPPSNLPPCDIIDKGQGKPYDIFNVVTSPEWTKKFYEKEPPIPYWLETRKGRKAWLQKYIPAVPHGSKYRLYFNTPDGPLERVPAWATYVQPEDEGKQAYAIHWEPSPEAAYKWKYSKPKVPESLRIYECHVGISGSEPKVSTFEEFTKKVLPHVKRAGYNAIQLIGVPEHKDYFTVGYRVTNFFAASSRYGTPDDFKRLVDEAHGLGLLVFLDIVHSYAAADQMVGLSLFDGSNDCYFHYGKRGHHKHWGTRMFKYGDLDVLHFLISNLNWWITEYQVDGYQFHSLASMIYTHNGFASFNNDLDDYCNQYVDRDALMYLILANEILHVQHPNIITIAEDATYYPGLCEPVSQGGLGFDYYVNLSASEMWVSLLDNVPDNEWSMSKIVSTLVANKEYADKMLSYAENHNQSISGGRSFAEILFGGVDNGSPGGKELLDRGISLHKMIRLITFTSGGRAYLNFMGNEFGHPERVEFPTQSNNFSFSLANRRWDLLESGVHHHLFSFDKELMDLDKSKGILSRGLPSIHHVNDANMVISFSRGPFLFIFNFHPSNSYEKYDVGVEEAGEYTMILNSDEVKYGGQGIVTEDHYLQRSISKRIDGQRNCLEVFLPSRTAQVYKLTRILRI

Columns and labels:
[1] = target: T1, AtMKIP1-YFP (yeast, without cTP) (Arabidopsis thaliana); assay: co-IP; anti-YFP IP (GFP-Trap) from soluble extracts of glycogen-deficient yeast co-expressing a YFP-tagged bait and an HA-tagged AtMatK form; 0.1 M MOPS pH 7.75, 1% Triton X-100, 4 °C; immunoblot
[2] = target: T2, NtMatK-HA (Nicotiana tabacum); assay: co-IP; anti-HA IP from soluble protein of 10-day-old NtMatK C+ tobacco seedlings (NtMatK C- as control), with or without RNase A/T1 during the incubation with beads; immunoblot
[3] = target: T2, NtMatK-HA (Nicotiana tabacum); assay: SEC; chloroplast stromal extract of NtMatK C+ tobacco on Superose 6 Increase 10/300 in 50 mM HEPES-KOH pH 7.8, 1 mM MgCl2; fractions read by immunoblot, fractions 5 and 6 by MS/MS
[4] = target: T2, NtMatK-HA (Nicotiana tabacum); assay: co-IP; anti-HA IP (magnetic beads) of each size-exclusion fraction of NtMatK C+ tobacco stroma; immunoblot
[5] = target: C-terminal AtMatK-HA segment (AA 357-526) (Arabidopsis thaliana); assay: co-IP; reciprocal: anti-HA IP (magnetic beads) from soluble extracts of yeast co-expressing an HA-tagged AtMatK bait and a YFP-tagged protein; immunoblot
[6] = target: N-terminal AtMatK-HA segment (AA 1-381) (Arabidopsis thaliana); assay: as above
[7] = target: AtEMB3120-YFP (Arabidopsis thaliana); assay: co-IP; anti-YFP IP (GFP-Trap) from soluble extracts of Arabidopsis lines expressing YFP-tagged baits, AtBE3-YFP as control; 50 mM Tris-HCl pH 8.0, 150 mM NaCl, 1% Triton X-100, 4 °C; immunoblot

| Molecule | binding [1] | binding [3] | binding [4] | also measured |
| --- | --- | --- | --- | --- |
| C-terminal AtMatK-HA segment (AA 357-526) (Arabidopsis thaliana) (domain or fragment) | no binding | – | – | – |
| N-terminal AtMatK-HA segment (AA 1-381) (Arabidopsis thaliana) (domain or fragment) | binds | – | – | – |
| NtMKIP1 | – | binds | binds | binding [2]: binds |
| NtValRS2 | – | binds | binds | – |
| B1 | – | – | – | binding [5]: no binding; binding [6]: binds |
| B2 | – | – | – | binding [7]: binds |

Source: PMC13172542
